These results are taken from PubChem BioAssay AID330 (DTP/NCI, 2004).

This assay deals with P388 leukemia ip, CD2F1 mice, survival T/C. Kind of assay: NCI In Vivo Anticancer Drug Screen. Data for tumor model P388 Leukemia (intraperitoneal) in CD2F1 (CDF1) mice. Particulars: T/C endpoint: median survival time, higher T/C = longer survival.
Where [1] appears, read: dose: 60.0 mg/kg/injection, schedule: Q01DX005 (ip), vehicle: Klucel (hydroxypropylcellulose) (HPC).
Where [2] appears, read: dose: 120.0 mg/kg/injection, schedule: Q01DX005 (ip), vehicle: Klucel (hydroxypropylcellulose) (HPC).
Where [3] appears, read: dose: 240.0 mg/kg/injection, schedule: Q01DX005 (ip), vehicle: Klucel (hydroxypropylcellulose) (HPC).
[4] abbreviates: dose: 100.0 mg/kg/injection, schedule: Q01DX009 (ip), vehicle: saline.
The mark [5] stands for this setting: dose: 200.0 mg/kg/injection, schedule: Q01DX009 (ip), vehicle: saline.
Setting [6] is: dose: 200.0 mg/kg/injection, schedule: Q01DX005 (ip), vehicle: Klucel (hydroxypropylcellulose) (HPC).
[7] abbreviates: dose: 200.0 mg/kg/injection, schedule: Q01DX009 (ip), vehicle: saline with Tween-80.
Where [8] appears, read: dose: 240.0 mg/kg/injection, schedule: Q01DX005 (ip), vehicle: saline with Tween-80.
Setting [9] is: dose: 120.0 mg/kg/injection, schedule: Q01DX005 (ip), vehicle: saline with Tween-80.
The mark [10] stands for this setting: dose: 25.0 mg/kg/injection, schedule: Q01DX009 (ip), vehicle: saline with Tween-80.
Where [11] appears, read: dose: 50.0 mg/kg/injection, schedule: Q01DX009 (ip), vehicle: saline with Tween-80.
Where [12] appears, read: dose: 100.0 mg/kg/injection, schedule: Q01DX009 (ip), vehicle: saline with Tween-80.
[13] abbreviates: dose: 50.0 mg/kg/injection, schedule: Q01DX009 (ip), vehicle: Klucel (hydroxypropylcellulose) (HPC).
The mark [14] stands for this setting: dose: 100.0 mg/kg/injection, schedule: Q01DX009 (ip), vehicle: Klucel (hydroxypropylcellulose) (HPC).
Setting [15] is: dose: 200.0 mg/kg/injection, schedule: Q01DX009 (ip), vehicle: Klucel (hydroxypropylcellulose) (HPC).

The list shows only some results of the screen, not a fair sample: it gathers tests that were run many times, whatever their T/C, doses with no T/C, and many T/C values between a quarter and a half above the control. Further doses and runs are listed elsewhere. T/C is the treated group as % of the vehicle group. Some entries give survivors of the animals treated and no T/C: the source files T/C as zero there, which appears to mark a toxic dose or a test without result, not a measured value. Some survivor counts are full or nearly so, which does not show that the dose was tolerated: the source hardly ever lists a survival T/C far under the control, and the zero likely stands for such cases as well. Survivors were counted at the toxicity check, usually on the fifth day, unless a day is given; later deaths do not show. Schedule codes are those of the source, taken here to give the interval after Q, in days (D) or hours (H), and the number of doses after X. Signs of the kind (2×) say how often a value occurs here. Some entries were tested several times; the values are given in rising order. Where survival is the endpoint, this PubChem deposit counts one and a half times the control or more as active, and values a quarter to a half above the control carry no call in these data; other NCI protocols may use other cut-offs. Some T/C values are followed by the survivors on the day toxicity was checked, most often the fifth; where none is given, no animal had died by that day.

On to `C=C1C[C@]23C[C@@]1(O)CC[C@H]2[C@@]12C=C[C@@H](O1)C(C(=O)OCC)=C2[C@@H]3O`, for which the survivor count was 0 of 6 (dose: 30.0 mg/kg/injection, schedule: Q01DX005 (ip), vehicle: Klucel (hydroxypropylcellulose) (HPC)); 0 of 6 under setting [1]; 2 of 6 under setting [2]; 0 of 6 under setting [3].

Regarding `CCCC(=O)O.CCCC(=O)O.CCCC(=O)O.CCCC(=O)O.[Rh].[Rh]`, the T/C (dose: 0.5 mg/kg/injection, schedule: Q01DX009 (ip), vehicle: saline + alcohol) was 125 and 139 % of control [5 of 6 alive]; the T/C (dose: 62.5 micrograms/kg/injection, schedule: Q01DX009 (ip), vehicle: saline + alcohol) is 125 % of control. Also, the survivor count was 5 of 6 (dose: 1.0 mg/kg/injection, schedule: Q01DX009 (ip), vehicle: saline + alcohol); 2 of 6 (dose: 2.0 mg/kg/injection, schedule: Q01DX009 (ip), vehicle: saline + alcohol); 0 of 6 (dose: 4.0 mg/kg/injection, schedule: Q01DX009 (ip), vehicle: saline + alcohol); 6 of 6 (dose: 500.0 micrograms/kg/injection, schedule: Q08HX018 (ip), vehicle: saline + alcohol); 6 of 6 (dose: 1000.0 micrograms/kg/injection, schedule: Q01DX009 (ip), vehicle: saline + alcohol); 0 of 6 (dose: 1000.0 micrograms/kg/injection, schedule: Q08HX018 (ip), vehicle: saline + alcohol). The survivor count (dose: 2000.0 micrograms/kg/injection, schedule: Q01DX009 (ip), vehicle: saline + alcohol) is reported as 3 of 6.

Take `C/C(=N\N=C(\N)N1CCOCC1)c1ccc2c(c1)Cc1ccccc1-2`: the survivor count was 0 of 6 (dose: 200.0 mg/kg/injection, schedule: Q04DX002 (ip), vehicle: saline with Tween-80) and 0 of 6 (dose: 400.0 mg/kg/injection, schedule: Q04DX002 (ip), vehicle: saline with Tween-80).

As to `BrC[Si](CBr)(c1ccccc1)c1ccccc1`, the survivor count reads like this: under setting [4], 6 of 6; under setting [5], 6 of 6.

Consider `O=S1(=O)c2cccc(c2)NC(=S)/C([n+]2ccccc2)=C(/[O-])c2ccc(cc2)CC2CCCCN21` (stereo unspecified), for which the survivor count under setting [6] was 6 of 6.

In the case of `OCC1OC(n2cnc3cncnc32)C(O)C1O` (stereo unspecified), under “dose: 50.0 mg/kg/injection, schedule: Q01DX001 (ip), vehicle: saline”, the T/C is 127 % of control.

With `CC(C)(C=O)COC1OCN(C(C)(C)C)CC1(C)C` (stereo unspecified), under setting [7], the T/C was 131 % of control.

For `COc1cc(-c2ccc(Nc3ccccc3C(=O)O)c(OC)c2)ccc1Nc1ccccc1C(=O)O`, under setting [5], the T/C is 126 % of control.

Regarding `CCc1nc(N)nc(N)c1-c1ccc(NCCc2ccccc2)c([N+](=O)[O-])c1`, the T/C is 129 % of control (dose: 50.0 mg/kg/injection, schedule: Q01DX005 (ip), vehicle: Klucel (hydroxypropylcellulose) (HPC)) and 142 % of control under setting [6].

Regarding `Cc1[nH]c(C)c2c(=O)ccsc12`, under setting [8], the survivor count was 6 of 6.

For the molecule `CC(C)C1CC(O)C(C)C(CN2CCCCC2)C1` (stereo unspecified), the survivor count under setting [6] was 3 of 6.

As for `COCCn1cc(F)c(=O)[nH]c1=O`, the T/C (dose: 200.0 mg/kg/injection, schedule: Q04DX002 (ip), vehicle: saline) is 129 % of control.

Regarding `Fc1ccc2cc3cccc[n+]3cc2c1`, the survivor count reads like this: (dose: 50.0 mg/kg/injection, schedule: Q01DX005 (ip), vehicle: saline with Tween-80) 3 of 5; (dose: 100.0 mg/kg/injection, schedule: Q01DX005 (ip), vehicle: saline with Tween-80) 0 of 5; (dose: 200.0 mg/kg/injection, schedule: Q01DX005 (ip), vehicle: saline with Tween-80) 0 of 5.

Take `COc1cc(C)c(/C(=N/O)n2nnc(-c3ccccc3)n2)c(C)c1`: the survivor count was 6 of 6 under setting [9] and 6 of 6 under setting [8].

For the molecule `O=C1C2CC=CCC2C(=O)N1SC(Cl)(Cl)Cl` (stereo unspecified), the survivor count reads like this: under setting [10], 1 of 6; under setting [11], 0 of 6; under setting [12], 0 of 6; under setting [7], 0 of 6.

As to `CC(C)OC(CCC#N)c1ccc(Cl)cc1` (stereo unspecified), the survivor count (dose: 100.0 mg/kg/injection, schedule: Q04DX003 (ip), vehicle: saline with Tween-80) was 6 of 6; the survivor count (dose: 200.0 mg/kg/injection, schedule: Q04DX003 (ip), vehicle: saline with Tween-80) is 1 of 6; the survivor count (dose: 400.0 mg/kg/injection, schedule: Q04DX003 (ip), vehicle: saline with Tween-80) is recorded as 0 of 6.

As to `C[C@@]12CCCC1=[N+]1CCc3ccccc3[C@@H]1CC2=O`, the survivor count (dose: 400.0 mg/kg/injection, schedule: Q04DX002 (ip), vehicle: Klucel (hydroxypropylcellulose) (HPC)) is listed as 0 of 6.

As for `CC1(C)C(/C=C\c2ccc(O)cc2)=Nc2ccccc21`, the survivor count is recorded as 1 of 6 under setting [11], 0 of 6 under setting [12] and 0 of 6 under setting [7].

On to `Cc1cc2nc(CC(=O)c3ccccc3)c(CC(=O)c3ccccc3)nc2cc1C`, for which the survivor count is, setting by setting: (dose: 30.0 mg/kg/injection, schedule: Q01DX005 (ip), vehicle: saline with Tween-80) 6 of 6; (dose: 60.0 mg/kg/injection, schedule: Q01DX005 (ip), vehicle: saline with Tween-80) 6 of 6; under setting [9], 6 of 6; under setting [8], 4 of 6.

With `Clc1ccc(C[Se][Se]Cc2ccc(Cl)cc2)cc1`, the survivor count runs as follows: under setting [13], 6 of 6; under setting [14], 6 of 6; under setting [15], 0 of 6.

In the case of `COCCn1c(=O)[nH]c(=O)c2c(Nc3ccccc3)snc21`, the survivor count by setting is: under setting [10], 5 of 6; under setting [11], 6 of 6. In addition, the T/C under setting [5] was 140 % of control.

Take `COC1=CC(=O)C(C#CCOCc2ccccc2)=CC1=O`: the survivor count is 3 of 6 under setting [1], 2 of 6 under setting [2] and 0 of 6 under setting [3].

As for `O=C(O)/C=C/c1ccc([N+](=O)[O-])o1`, the T/C reads like this: under setting [13], 140 % of control; under setting [14], 135 % of control. For the same molecule, the survivor count is 2 of 6 under setting [14]; 0 of 6 and 1 of 6 under setting [15].

As for `C=CS(=O)(=NN1C(=O)c2ccccc2C1=O)c1ccc(C)cc1` (stereo unspecified), the survivor count reads like this: (dose: 100.0 mg/kg/injection, schedule: Q01DX001 (ip), vehicle: Klucel (hydroxypropylcellulose) (HPC)) 1 of 5; (dose: 200.0 mg/kg/injection, schedule: Q01DX001 (ip), vehicle: Klucel (hydroxypropylcellulose) (HPC)) 0 of 5 and 1 of 5; (dose: 400.0 mg/kg/injection, schedule: Q01DX001 (ip), vehicle: Klucel (hydroxypropylcellulose) (HPC)) 0 of 5 (2×).

`CCCCCCCCCCCCNCC(=O)O`: the survivor count is 0 of 6 and 1 of 6 under setting [4]; 0 of 6 under setting [5]; 0 of 6 (dose: 400.0 mg/kg/injection, schedule: Q01DX009 (ip), vehicle: saline).

Turning to `C1CCC2OCCOCCOC3CCCCC3OCCOCCOC2C1` (stereo unspecified), the survivor count is reported as 6 of 6 (dose: 12.5 mg/kg/injection, schedule: Q01DX009 (ip), vehicle: Klucel (hydroxypropylcellulose) (HPC)); 4 of 6 under setting [13]; 0 of 6 under setting [14]; 0 of 6 under setting [15]. In addition, the T/C runs as follows: (dose: 25.0 mg/kg/injection, schedule: Q01DX009 (ip), vehicle: Klucel (hydroxypropylcellulose) (HPC)) 128 % of control; under setting [13], 93 [5 of 6 alive], 118 [4 of 6 alive], 124 % of control [5 of 6 alive].
